Patent publication US20130035289A1, “PHARMACEUTICAL COMPOSITION FOR TREATMENT OF THROMBOSIS-RELATED DISEASES COMPRISING A FRAGMENT OF PROLACTIN (PRL)-GROWTH HORMONE (GH)-PLACENTAL LACTOGEN (PL)-FAMILY PROTEIN” (UNIVERSITE DE LIEGE, priority 2010, published 2013)
No constants are given. Whether binding was seen depends on the method and setting. For some of these results: Binding seen in cells or lysates may run through a third protein. Some binding calls cover weakened binding; strength is not graded here.

Chains of the proteins cited; added tags and fusions are not shown. Lines headed by an entry give the natural chain unless they say otherwise; changes in a name come on top. Residues count along the entry.
UniProt P00750, residues 36-562: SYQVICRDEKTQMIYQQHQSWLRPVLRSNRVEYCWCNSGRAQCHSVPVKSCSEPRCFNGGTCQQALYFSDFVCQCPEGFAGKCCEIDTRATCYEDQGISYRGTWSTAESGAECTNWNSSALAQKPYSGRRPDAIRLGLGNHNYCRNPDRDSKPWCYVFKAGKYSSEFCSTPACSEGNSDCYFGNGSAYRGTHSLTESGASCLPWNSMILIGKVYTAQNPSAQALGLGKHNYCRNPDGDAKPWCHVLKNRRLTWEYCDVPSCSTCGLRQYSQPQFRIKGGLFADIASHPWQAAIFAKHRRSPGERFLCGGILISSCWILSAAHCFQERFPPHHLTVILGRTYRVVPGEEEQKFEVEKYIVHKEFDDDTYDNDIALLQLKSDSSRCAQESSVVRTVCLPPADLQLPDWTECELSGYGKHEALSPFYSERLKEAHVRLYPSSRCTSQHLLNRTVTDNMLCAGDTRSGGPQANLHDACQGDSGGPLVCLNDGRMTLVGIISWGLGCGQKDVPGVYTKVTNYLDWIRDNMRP
UniProt P01241: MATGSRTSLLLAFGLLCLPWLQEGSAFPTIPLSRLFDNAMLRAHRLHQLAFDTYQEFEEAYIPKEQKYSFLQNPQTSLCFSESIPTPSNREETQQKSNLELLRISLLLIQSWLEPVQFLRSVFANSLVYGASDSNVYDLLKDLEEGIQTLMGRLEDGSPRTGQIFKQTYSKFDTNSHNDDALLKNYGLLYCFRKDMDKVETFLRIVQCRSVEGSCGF

Tests used:
[1] = molecular target: tissue-type plasminogen activator (tPA) (UniProt P00750); assay: SDS-PAGE with silver stain of the SDS-stable PAI-1/tPA complex
[2] = molecular target: tissue-type plasminogen activator (tPA) (UniProt P00750); assay: SDS-PAGE, silver staining (figure legend)
[3] = molecular target: Recombinant wild type human Plasminogen Activator Inhibitor type 1 (PAI-1) (human) (UniProt P05121); assay: co-immunoprecipitation with anti-PAI-1 antibody (sheet: IP PA-1), Western blot for 14K GH; recombinant proteins
[4] = molecular target: Endogenous human PAI-1 (HUVEC conditioned medium; human plasma) (human) (UniProt P05121); assay: co-immunoprecipitation with anti-PAI-1 mAb 33H1F7, Western blot (figure legend)
[5] = molecular target: Recombinant wild type human Plasminogen Activator Inhibitor type 1 (PAI-1) (human) (UniProt P05121); assay: as above
[6] = molecular target: T1, Endogenous murine PAI-1 (mouse plasma) (mouse) (UniProt P22777); assay: immunoprecipitation of PAI-1 from mouse plasma, Western blot for 14K GH
T1 sequence (looked up): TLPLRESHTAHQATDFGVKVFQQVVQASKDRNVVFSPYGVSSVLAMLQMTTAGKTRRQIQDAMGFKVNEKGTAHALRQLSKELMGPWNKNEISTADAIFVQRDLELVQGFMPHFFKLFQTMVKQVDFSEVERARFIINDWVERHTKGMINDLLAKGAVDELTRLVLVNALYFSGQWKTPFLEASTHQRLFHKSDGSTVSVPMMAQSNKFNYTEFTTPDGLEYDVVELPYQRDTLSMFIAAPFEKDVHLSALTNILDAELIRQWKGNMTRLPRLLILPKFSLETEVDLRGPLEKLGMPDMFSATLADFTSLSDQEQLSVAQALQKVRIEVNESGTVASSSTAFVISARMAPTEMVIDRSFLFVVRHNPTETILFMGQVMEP

[7] = molecular target: Endogenous human PAI-1 (HUVEC conditioned medium; human plasma) (human) (UniProt P05121); assay: immunoprecipitation of PAI-1 from human plasma, Western blot for 14K GH
[8] = molecular target: Endogenous human PAI-1 (HUVEC conditioned medium; human plasma) (human) (UniProt P05121); assay: immunoprecipitation of endogenous PAI-1 from HUVEC conditioned medium (sheet: IP PA-1), Western blot for 14K GH
[9] = molecular target: Endogenous human PAI-1 (HUVEC conditioned medium; human plasma) (human) (UniProt P05121); assay: co-immunoprecipitation from HUVEC conditioned medium, Western blot
[10] = molecular target: Recombinant wild type human Plasminogen Activator Inhibitor type 1 (PAI-1) (human) (UniProt P05121); assay: co-immunoprecipitation with anti-PAI-1 mAb 33H1F7, Western blot
[11] = molecular target: T1, Endogenous murine PAI-1 (mouse plasma) (mouse); assay: co-immunoprecipitation from mouse plasma, Western blot
[12] = molecular target: Endogenous human PAI-1 (HUVEC conditioned medium; human plasma) (human) (UniProt P05121); assay: co-immunoprecipitation from human plasma, Western blot
[13] = molecular target: Recombinant wild type human Plasminogen Activator Inhibitor type 1 (PAI-1) (human) (UniProt P05121); assay: yeast two-hybrid, 14K hGH Gal4 bait, PAI-1 prey

Measured: binding

Recombinant wild type human Plasminogen Activator Inhibitor type 1 (PAI-1) (from UniProt P05121 24-402)
binds: [1] | [2]

Recombinant 14K N-terminal human growth hormone (14K hGH) (from UniProt P01241 27-159)
not listed: [1] | [2]
binds: all other assays above
